PubChem BioAssay AID1259261 – Sanger Institute – 2017
Aim: 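siRNA screen across the kinome for kinases that are essential and partners synergising with drugs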 (primary screen). System: HCC2998 human colorectal cancer cells. Reagent: siRNA pool against human genes. Challenge: anchor drugs BYL719 1 µM, cetuximab 5 µg/ml or trametinib 10 nM, each compared with DMSO vehicle. Detection: 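Viability as fraction of non-targeting control plus robust z-score without drug; synergy scores compare knock-down plus drug against each alone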. Reading the numbers: viability z-score, knock-down alone: higher = more viable cells than controls. Rule for the call: 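Essential when the siRNA-alone viability robust z-score is below -3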. Calls: active = essential; inactive = no change.
This is a random part of 794 deposited reagents. In the full data, 10 (1.3%) were called active. 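Calls reflect knock-down alone without drug; synergy scores with BYL719, cetuximab or trametinib do not affect calls.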 Further read-outs or replicates are left out here. The record does not give: the amount of reagent, the time to read-out.

What is on record for MAP3K2 (GeneID 10746)?
viability z-score, knock-down alone: -1.58; outcome: inactive

How did the screen score PANK2 (GeneID 80025)?
viability z-score, knock-down alone: 0.127; outcome: inactive

What did the screen give for CDK17 (GeneID 5128)?
viability z-score, knock-down alone: -0.177; outcome: inactive

For EIF2AK2 (GeneID 5610), what was measured?
viability z-score, knock-down alone: 1.21; outcome: inactive

What did the screen give for PKMYT1 (GeneID 9088)?
viability z-score, knock-down alone: 0.696; outcome: inactive

What is on record for ITSN1 (GeneID 6453)?
viability z-score, knock-down alone: -0.45; outcome: inactive

For CDK13 (GeneID 8621), how do the results read?
viability z-score, knock-down alone: 0.841; outcome: inactive

For CREBBP (GeneID 1387), what does the deposit list?
viability z-score, knock-down alone: -0.645; outcome: inactive

For STAG2 (GeneID 10735), what was measured?
viability z-score, knock-down alone: 1.13; outcome: inactive

For TAOK3 (GeneID 51347), what was measured?
viability z-score, knock-down alone: -1.28; outcome: inactive

What did the screen give for NEK1 (GeneID 4750)?
viability z-score, knock-down alone: -0.202; outcome: inactive

For PI4KB (GeneID 5298), what was measured?
viability z-score, knock-down alone: -0.148; outcome: inactive

Not a retest: 2 of the entries above.
CDK17 (GeneID 5128): viability z-score, knock-down alone = -0.177; outcome = inactive
EIF2AK2 (GeneID 5610): viability z-score, knock-down alone = 1.21; outcome = inactive
